These are yes or no findings as the source states them, for the method shown. Binding seen in cells or lysates may run through a third protein. Some binding calls cover weakened binding; strength is not graded here. Sequences can lack the tags named with a protein. Values belong to the binder of their own block, whether it stands above or below them.
Assays:
[1] = target: CSF1R-HA (receptor for colony-stimulating factor-1) (UniProt P07333); assay: co-IP; TMEM59 with CSF1R-HA as a control (Supplementary Fig. 4); cells and antibodies not given
[2] = target: T1, TMEM59-GFP (full length TMEM59, GFP-tagged) (human) (UniProt Q9BXS4); assay: co-IP; BV2 cells co-transfected for 24 h with Myc- and GFP-tagged plasmids; NP-40 lysis buffer (25 mM Tris-HCl pH 7.6, 150 mM NaCl, 1 mM EDTA, 1% Nonidet P-40); immunoprecipitation with antibodies against Myc or GFP or control mouse IgG and Protein G Agarose overnight; immunoblot for Myc or GFP
T1 sequence: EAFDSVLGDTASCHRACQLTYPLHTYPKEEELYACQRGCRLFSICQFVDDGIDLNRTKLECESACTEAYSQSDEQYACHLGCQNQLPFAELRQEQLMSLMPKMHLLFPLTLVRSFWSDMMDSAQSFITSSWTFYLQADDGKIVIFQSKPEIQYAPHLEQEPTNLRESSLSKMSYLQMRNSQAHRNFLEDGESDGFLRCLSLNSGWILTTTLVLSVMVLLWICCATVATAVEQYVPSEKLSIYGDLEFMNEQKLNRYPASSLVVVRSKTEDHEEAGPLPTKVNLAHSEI

The chains behind the UniProt entries cited, without tags or fusion partners. Residues count along the entry.
UniProt P07333, residues 20-972: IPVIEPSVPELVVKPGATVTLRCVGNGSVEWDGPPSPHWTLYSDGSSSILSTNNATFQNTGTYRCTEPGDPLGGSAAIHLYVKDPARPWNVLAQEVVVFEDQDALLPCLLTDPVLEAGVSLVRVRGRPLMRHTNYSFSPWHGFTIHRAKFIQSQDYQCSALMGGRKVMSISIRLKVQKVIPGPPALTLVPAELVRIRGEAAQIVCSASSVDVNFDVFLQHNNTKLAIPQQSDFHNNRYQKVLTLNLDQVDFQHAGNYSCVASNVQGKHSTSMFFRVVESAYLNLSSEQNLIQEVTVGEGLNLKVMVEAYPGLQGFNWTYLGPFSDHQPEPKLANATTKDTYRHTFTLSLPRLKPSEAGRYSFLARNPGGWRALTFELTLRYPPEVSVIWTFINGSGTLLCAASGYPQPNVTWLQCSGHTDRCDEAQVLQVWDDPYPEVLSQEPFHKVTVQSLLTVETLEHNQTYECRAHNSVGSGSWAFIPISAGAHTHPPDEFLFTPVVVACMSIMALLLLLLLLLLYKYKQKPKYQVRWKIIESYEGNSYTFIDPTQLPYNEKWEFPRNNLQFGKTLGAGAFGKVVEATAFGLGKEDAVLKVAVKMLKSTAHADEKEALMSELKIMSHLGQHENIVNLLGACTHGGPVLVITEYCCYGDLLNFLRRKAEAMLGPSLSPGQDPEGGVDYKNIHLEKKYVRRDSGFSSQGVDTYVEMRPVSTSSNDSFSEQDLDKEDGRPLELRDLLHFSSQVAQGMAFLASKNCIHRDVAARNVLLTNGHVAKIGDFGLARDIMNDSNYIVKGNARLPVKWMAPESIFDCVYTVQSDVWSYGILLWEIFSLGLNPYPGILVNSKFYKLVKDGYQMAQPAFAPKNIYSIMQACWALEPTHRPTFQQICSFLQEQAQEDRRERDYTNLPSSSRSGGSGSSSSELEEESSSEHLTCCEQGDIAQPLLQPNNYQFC

binding [1]: no binding
B1: TMEM59 (as tested with CSF1R; tag not told) (protein, UniProt Q9BXS4 36-323)
chain: T1 sequence

binding [2]: binds
B2: TREM2-Myc (full-length TREM2, Myc-tagged) (receptor, UniProt Q9NZC2 19-230)
chain: HNTTVFQGVAGQSLQVSCPYDSMKHWGRRKAWCRQLGEKGPCQRVVSTHNLWLLSFLRRWNGSTAITDDTLGGTLTITLRNLQPHDAGLYQCQSLHGSEADTLRKVLVEVLADPLDHRDAGDLWFPGESESFEDAHVEHSISRSLLEGEIPFPPTSILLLLACIFLIKILAASALWAAAWHGQKPGTHPPSELDCGHDPGYQLQTLPGLRDT
